Results taken from US10450346B2, “Immunotherapy against several tumors of the blood, in particular chronic lymphoid leukemia (CLL)” (Immatics biotechnologies GmbH, priority 2014, dated 2019).

B1: NLR family, pyrin domain containing 2 (protein, UniProt Q9NX02 1-1062, looked up)
NACHT, LRR and PYD …: MVSSAQMGFNLQALLEQLSQDELSKFKYLITTFSLAHELQKIPHKEVDKADGKQLVEILTTHCDSYWVEMASLQVFEKMHRMDLSERAKDEVREAALKSFNKRKPLSLGITRKERPPLDVDEMLERFKTEAQAFTETKGNVICLGKEVFKGKKPDKDNRCRYILKTKFREMWKSWPGDSKEVQVMAERYKMLIPFSNPRVLPGPFSYTVVLYGPAGLGKTTLAQKLMLDWAEDNLIHKFKYAFYLSCRELSRLGPCSFAELVFRDWPELQDDIPHILAQARKILFVIDGFDELGAAPGALIEDICGDWEKKKPVPVLLGSLLNRVMLPKAALLVTTRPRALRDLRILAEEPIYIRVEGFLEEDRRAYFLRHFGDEDQAMRAFELMRSNAALFQLGSAPAVCWIVCTTLKLQMEKGEDPVPTCLTRTGLFLRFLCSRFPQGAQLRGALRTLSLLAAQGLWAQTSVLHREDLERLGVQESDLRLFLDGDILRQDRVSKGCYSFIHLSFQQFLTALFYTLEKEEEEDRDGHTWDIGDVQKLLSGVERLRNPDLIQAGYYSFGLANEKRAKELEATFGCRMSPDIKQELLRCDISCKGGHSTVTDLQELLGCLYESQEEELVKEVMAQFKEISLHLNAVDVVPSSFCVKHCRNLQKMSLQVIKENLPENVTASESDAEVERSQDDQHMLPFWTDLCSIFGSNKDLMGLAINDSFLSASLVRILCEQIASDTCHLQRVVFKNISPADAHRNLCLALRGHKTVTYLTLQGNDQDDMFPALCEVLRHPECNLRYLGLVSCSATTQQWADLSLALEVNQSLTCVNLSDNELLDEGAKLLYTTLRHPKCFLQRLSLENCHLTEANCKDLAAVLVVSRELTHLCLAKNPIGNTGVKFLCEGLRYPECKLQTLVLWNCDITSDGCCDLTKLLQEKSSLLCLDLGLNHIGVKGMKFLCEALRKPLCNLRCLWLWGCSIPPFSCEDLCSALSCNQSLVTLDLGQNPLGSSGVKMLFETLTCSSGTLRTLRLKIDDFNDELNKLLEEIEEKNPQLIIDTEKHHPWAERPSSHDFMI
notes: LiTAA source protein
B2: zinc finger CCCH-type containing 12D (protein, UniProt A2A288 1-527, looked up)
Probable ribonuclease ZC3H12D: MEHPSKMEFFQKLGYDREDVLRVLGKLGEGALVNDVLQELIRTGSRPGALEHPAAPRLVPRGSCGVPDSAQRGPGTALEEDFRTLASSLRPIVIDGSNVAMSHGNKETFSCRGIKLAVDWFRDRGHTYIKVFVPSWRKDPPRADTPIREQHVLAELERQAVLVYTPSRKVHGKRLVCYDDRYIVKVAYEQDGVIVSNDNYRDLQSENPEWKWFIEQRLLMFSFVNDRFMPPDDPLGRHGPSLSNFLSRKPKPPEPSWQHCPYGKKCTYGIKCKFYHPERPHHAQLAVADELRAKTGARPGAGAEEQRPPRAPGGSAGARAAPREPFAHSLPPARGSPDLAALRGSFSRLAFSDDLGPLGPPLPVPACSLTPRLGGPDWVSAGGRVPGPLSLPSPESQFSPGDLPPPPGLQLQPRGEHRPRDLHGDLLSPRRPPDDPWARPPRSDRFPGRSVWAEPAWGDGATGGLSVYATEDDEGDARARARIALYSVFPRDQVDRVMAAFPELSDLARLILLVQRCQSAGAPLGKP
notes: LiTAA source protein
B3: cytoskeleton-associated protein 4 (protein, UniProt Q07065 1-602, looked up)
Cytoskeleton-associated …: MPSAKQRGSKGGHGAASPSEKGAHPSGGADDVAKKPPPAPQQPPPPPAPHPQQHPQQHPQNQAHGKGGHRGGGGGGGKSSSSSSASAAAAAAAASSSASCSRRLGRALNFLFYLALVAAAAFSGWCVHHVLEEVQQVRRSHQDFSRQREELGQGLQGVEQKVQSLQATFGTFESILRSSQHKQDLTEKAVKQGESEVSRISEVLQKLQNEILKDLSDGIHVVKDARERDFTSLENTVEERLTELTKSINDNIAIFTEVQKRSQKEINDMKAKVASLEESEGNKQDLKALKEAVKEIQTSAKSREWDMEALRSTLQTMESDIYTEVRELVSLKQEQQAFKEAADTERLALQALTEKLLRSEESVSRLPEEIRRLEEELRQLKSDSHGPKEDGGFRHSEAFEALQQKSQGLDSRLQHVEDGVLSMQVASARQTESLESLLSKSQEHEQRLAALQGRLEGLGSSEADQDGLASTVRSLGETQLVLYGDVEELKRSVGELPSTVESLQKVQEQVHTLLSQDQAQAARLPPQDFLDRLSSLDNLKASVSQVEADLKMLRTAVDSLVAYSVKIETNENNLESAKGLLDDLRNDLDRLFVKVEKIHEKV
notes: LiTAA source protein
B4: cordon-bleu WH2 repeat protein-like 1 (protein, UniProt Q53SF7 1-1128, looked up)
Cordon-bleu protein-like 1: MDGRTPRPQDAPARRKPKAKAPLPPAETKYTDVSSAADSVESTAFIMEQKENMIDKDVELSVVLPGDIIKSTTVHGSKPMMDLLIFLCAQYHLNPSSYTIDLLSAEQNHIKFKPNTPIGMLEVEKVILKPKMLDKKKPTPIIPEKTVRVVINFKKTQKTIVRVSPHASLQELAPIICSKCEFDPLHTLLLKDYQSQEPLDLTKSLNDLGLRELYAMDVNRESCQISQNLDIMKEKENKGFFSFFQRSKKKRDQTASAPATPLVNKHRPTFTRSNTISKPYISNTLPSDAPKKRRAPLPPMPASQSVPQDLAHIQERPASCIVKSMSVDETDKSPCEAGRVRAGSLQLSSMSAGNSSLRRTKRKAPSPPSKIPPHQSDENSRVTALQPVDGVPPDSASEANSPEELSSPAGISSDYSLEEIDEKEELSEVPKVEAENISPKSQDIPFVSTDIINTLKNDPDSALGNGSGEFSQNSMEEKQETKSTDGQEPHSVVYDTSNGKKVVDSIRNLKSLGPNQENVVQNEIIVYPENTEDNMKNGVKKTEINVEGVAKNNNIDMEVERPSNSEAHETDTAISYKENHLAASSVPDQKLNQPSAEKTKDAAIQTTPSCNSFDGKHQDHNLSDSKVEECVQTSNNNISTQHSCLSSQDSVNTSREFRSQGTLIIHSEDPLTVKDPICAHGNDDLLPPVDRIDKNSTASYLKNYPLYRQDYNPKPKPSNEITREYIPKIGMTTYKIVPPKSLEISKDWQSETIEYKDDQDMHALGKKHTHENVKETAIQTEDSAISESPEEPLPNLKPKPNLRTEHQVPSSVSSPDDAMVSPLKPAPKMTRDTGTAPFAPNLEEINNILESKFKSRASNAQAKPSSFFLQMQKRVSGHYVTSAAAKSVHAAPNPAPKELTNKEAERDMLPSPEQTLSPLSKMPHSVPQPLVEKTDDDVIGQAPAEASPPPIAPKPVTIPASQVSTQNLKTLKTFGAPRPYSSSGPSPFALAVVKRSQSFSKERTESPSASALVQPPANTEEGKTHSVNKFVDIPQLGVSDKENNSAHNEQNSQIPTPTDGPSFTVMRQSSLTFQSSDPEQMRQSLLTAIRSGEAAAKLKRVTIPSNTISVNGRSRLSHSMSPDAQDGH
notes: LiTAA source protein
B5: transmembrane emp24 protein transport domain containing 4 (protein, UniProt Q7Z7H5 30-227, looked up)
Transmembrane emp24 …: LYFHIGETEKRCFIEEIPDETMVIGNYRTQMWDKQKEVFLPSTPGLGMHVEVKDPDGKVVLSRQYGSEGRFTFTSHTPGDHQICLHSNSTRMALFAGGKLRVHLDIQVGEHANNYPEIAAKDKLTELQLRARQLLDQVEQIQKEQDYQRYREERFRLTSESTNQRVLWWSIAQTVILILTGIWQMRHLKSFFEAKKLV
notes: LiTAA source protein
B6: ubiquitin-like 7 (protein, UniProt Q96S82 1-380, looked up)
Ubiquitin-like protein 7: MSLSDWHLAVKLADQPLTPKSILRLPETELGEYSLGGYSISFLKQLIAGKLQESVPDPELIDLIYCGRKLKDDQTLDFYGIQPGSTVHVLRKSWPEPDQKPEPVDKVAAMREFRVLHTALHSSSSYREAVFKMLSNKESLDQIIVATPGLSSDPIALGVLQDKDLFSVFADPNMLDTLVPAHPALVNAIVLVLHSVAGSAPMPGTDSSSRSMPSSSYRDMPGGFLFEGLSDDEDDFHPNTRSTPSSSTPSSRPASLGYSGAAGPRPITQSELATALALASTPESSSHTPTPGTQGHSSGTSPMSSGVQSGTPITNDLFSQALQHALQASGQPSLQSQWQPQLQQLRDMGIQDDELSLRALQATGGDIQAALELIFAGGAP
notes: LiTAA source protein
B7: Ras protein-specific guanine nucleotide-releasing factor 1 (protein, UniProt Q13972 1-1273, looked up)
Ras-specific guanine …: MQKGIRLNDGHVASLGLLARKDGTRKGYLSKRSSDNTKWQTKWFALLQNLLFYFESDSSSRPSGLYLLEGCVCDRAPSPKPALSAKEPLEKQHYFTVNFSHENQKALELRTEDAKDCDEWVAAIAHASYRTLATEHEALMQKYLHLLQIVETEKTVAKQLRQQIEDGEIEIERLKAEITSLLKDNERIQSTQTVAPNDEDSDIKKIKKVQSFLRGWLCRRKWKTIIQDYIRSPHADSMRKRNQVVFSMLEAEAEYVQQLHILVNNFLRPLRMAASSKKPPITHDDVSSIFLNSETIMFLHQIFYQGLKARISSWPTLVLADLFDILLPMLNIYQEFVRNHQYSLQILAHCKQNRDFDKLLKHYEAKPDCEERTLETFLTYPMFQIPRYILTLHELLAHTPHEHVERNSLDYAKSKLEELSRIMHDEVSETENIRKNLAIERMIIEGCEILLDTSQTFVRQGSLIQVPMSEKGKITRGRLGSLSLKKEGERQCFLFSKHLIICTRGSGGKLHLTKNGVISLIDCTLLEEPESTEEEAKGSGQDIDHLDFKIGVEPKDSPPFTVILVASSRQEKAAWTSDISQCVDNIRCNGLMMNAFEENSKVTVPQMIKRTREGTREAEMSRSDASLYCDDVDIRFSKTMNSCKVLQIRYASVERLLERLTDLRFLSIDFLNTFLHSYRVFTTAIVVLDKLITIYKKPISAIPARWLRSLELLFASGQNNKLLYGEPPKSPRATRKFSSPPPLSITKTSSPSRRRKLSLNIPIITGGKALDLAALSCNSNGYTSMYSAMSPFSKATLDTSKLYVSSSFTNKIPDEGDTTPEKPEDPSALSKQSSEVSMREESDIDQNQSDDGDTETSPTKSPTTPKSVKNKNSSEFPLFSYNNGVVMTSCRELDNNRSALSAASAFAIATAGANEGTPNKEKYRRMSLASAGFPPDQRNGDKEFVIRRAATNRVLNVLRHWVSKHSQDFETNDELKCKVIGFLEEVMHDPELLTQERKAAANIIRTLTQEDPGDNQITLEEITQMAEGVKAEPFENHSALEIAEQLTLLDHLVFKKIPYEEFFGQGWMKLEKNERTPYIMKTTKHFNDISNLIASEIIRNEDINARVSAIEKWVAVADICRCLHNYNAVLEITSSMNRSAIFRLKKTWLKVSKQTKALIDKLQKLVSSEGRFKNLREALKNCDPPCVPYLGMYLTDLAFIEEGTPNYTEDGLVNFSKMRMISHIIREIRQFQQTAYKIEHQAKVTQYLLDQSFVMDEESLYESSLRIEPKLPT
notes: LiTAA source protein
B8: chromosome X open reading frame 21 (protein, UniProt Q9HAI6 1-301, looked up)
TLR adapter interacting with …: MLSEGYLSGLEYWNDIHWSCASYNEQVAGEKEEETNSVATLSYSSVDETQVRSLYVSCKSSGKFISSVHSRESQHSRSQRVTVLQTNPNPVFESPNLAAVEICRDASRETYLVPSSCKSICKNYNDLQIAGGQVMAINSVTTDFPSESSFEYGPLLKSSEIPLPMEDSISTQPSDFPQKPIQRYSSYWRITSIKEKSSLQMQNPISNAVLNEYLEQKVVELYKQYIMDTVFHDSSPTQILASELIMTSVDQISLQVSREKNLETSKARDIVFSRLLQLMSTEITEISTPSLHISQYSNVNP
notes: LiTAA source protein

System: primary CLL samples (PBMC from CLL patients), HLA class I ligands
Experiment: HLA class I ligandome analysis by LC-MS/MS (frequency of HLA restricted presentation)
Set-up: species or system human
Settings: for Number of positive CLLs: CLL patient HLA class I ligandomes (n = 30); for Number of positive CLLs (frequency [%]): source protein (LiTAA) representation in CLL patient HLA class I ligandomes (n = 30)

| Molecule | Number of positive CLLs | Number of positive CLLs (frequency [%]) [%] |
| --- | --- | --- |
| B1 | 6 | 20.0 |
| B2 | 6 | 20.0 |
| B3 | 6 | 20.0 |
| B4 | 6 | 20.0 |
| B5 | 6 | 20.0 |
| B6 | 6 | 20.0 |
| B7 | 12 | 40.0 |
| B8 | 6 | 20.0 |
